# In patent US9896481B2, “Modified mini-hepcidin peptides and methods of using thereof” (priority 2011, dated 2018):
# Protein sequences, listed by entry. Tags and fused reporters are not part of them. Lines headed by an entry give the natural chain unless they say otherwise; changes in a name come on top.
# UniProt P81172: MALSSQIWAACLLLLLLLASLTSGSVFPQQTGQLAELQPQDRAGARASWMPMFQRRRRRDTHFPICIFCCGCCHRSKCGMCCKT
# For some of these results: At least one peptide structure holds a part that was inferred or is arguable (an end, a ring closure or a residue). For some of these results: For at least one compound, name, drawing or mass did not settle the structure. Some entries share one result that the patent states for a list of compounds. Non-standard residues stand in square brackets, D forms with d. Residues, ends and D or L forms follow the SMILES beside them. *: point of attachment. Ursodeoxycholyl = C[C@H](CCC(=O)*)[C@H]1CC[C@H]2[C@@H]3[C@@H](O)C[C@@H]4C[C@H](O)CC[C@]4(C)[C@H]3CC[C@]12C; PEG12 = NCCOCCOCCOCCOCCOCCOCCOCCOCCOCCOCCOCCOCCC(=O)O
# Legend:
# [1] = tested on: C57/Bl6J mice; assay: Serum iron assay in mice on low-iron diet, 4 hours after peptide; type: in vivo, mouse; parameters: key to active in vivo: *active in vivo
# Experimental: The decrease in serum iron after peptide administration is the principal measure of hepcidin activity. Thus, as provided herein, the hepcidin activity of selected peptides of the present invention were assayed in vivo by measuring serum iron in test subjects. Briefly, C57/Bl6J mice were maintained on NIH 31 rodent diet (333 parts per million (ppm) iron; Harlan Teklad, Indianapolis, Ind.). Two weeks before the experiment, the mice were switched to a diet containing about 2-4 ppm iron (Harlan Teklad, Indianapolis, Ind.) in order to suppress endogenous hepcidin. Peptide stocks were diluted to desired concentrations in sterile phosphate buffered saline (PBS) or other diluents as described next. […] Serum iron was determined by using a colorimetric assay (Diagnostic Chemicals, Oxford, Conn.), which was modified for the microplate format so that 10 μl serum was used per measurement. The results were expressed as the percentage of decrease in serum iron when compared with the average value of serum iron levels in PBS-treated mice.
# [2] = molecular target: T1, ferroportin tagged at the C-terminus with green fluorescent protein (Fpn-GFP) (Mus musculus, UniProt Q9JHI9); assay: Flow cytometry of ferroportin-GFP degradation in ECR293/Fpn-GFP cells; type: cell-based
# T1 construct: expressed in transfected cells; host or cells: ECR293/Fpn-GFP (stably transfected, ponasterone-inducible)
# T1 sequence (Q9JHI9 1-570): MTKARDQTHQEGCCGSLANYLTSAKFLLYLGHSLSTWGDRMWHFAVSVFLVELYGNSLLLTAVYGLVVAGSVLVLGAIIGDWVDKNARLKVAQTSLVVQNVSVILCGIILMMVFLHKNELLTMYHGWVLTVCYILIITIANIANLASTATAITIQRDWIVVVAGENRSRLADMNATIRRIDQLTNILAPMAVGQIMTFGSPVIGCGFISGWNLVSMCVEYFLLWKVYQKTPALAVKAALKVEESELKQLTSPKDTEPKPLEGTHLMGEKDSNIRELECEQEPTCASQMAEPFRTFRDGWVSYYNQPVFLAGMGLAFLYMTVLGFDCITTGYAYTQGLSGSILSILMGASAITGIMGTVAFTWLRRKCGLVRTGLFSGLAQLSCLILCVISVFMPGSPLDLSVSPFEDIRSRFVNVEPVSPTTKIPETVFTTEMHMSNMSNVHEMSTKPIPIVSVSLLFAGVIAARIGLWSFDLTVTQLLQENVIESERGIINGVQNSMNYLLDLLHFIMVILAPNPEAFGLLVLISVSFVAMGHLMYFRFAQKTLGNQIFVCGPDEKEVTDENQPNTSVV
# Experimental: In vitro activity may be measured by the dose-dependent loss of fluorescence of cells engineered to display ferroportin fused to green fluorescent protein as in Nemeth et al. (2006) Blood 107:328-33. Aliquots of cells are incubated for 24 hours with graded concentrations of a reference preparation of Hep25 or a mini-hepcidin. As provided herein, the EC50 values are provided as the concentration of a given compound (e.g. peptide) that elicits 50% of the maximal loss of fluorescence generated by the reference Hep25 preparation.
# Mutational studies indicate that C326, the cysteine residue at position 326 of human ferroportin, is the critical residue involved in binding hepcidin. Thus, various N-terminal fragments of Hep25 containing a thiol, i.e. Hep 4-7, Hep3-7, Hep3-8, Hep3-9, Hep1-7, Hep1-8, Hep1-9, and Hep1-10 C7A, were chemically synthesized, refolded and their activities relative to Hep25 were assayed using flow-cytometric quantitation of the ferroportin-GFP degradation, iron efflux estimation based on measurements of cellular ferritin, and radioisotopic iron efflux studies.
# The activity of peptides of the present invention was measured by flow cytometry as previously described. […] Cells were then trypsinized and resuspended at 1×10^6 cells/ml, and the intensity of green fluorescence was analyzed by flow cytometry. […]
compound,measurement,setting,value
CC[C@@H](C)[C@@H](NC(=O)[C@H](N)Cc1ccccc1)C(=O)N[C@H](CS)C(=O)N[C@@H](C(=O)N1CCC[C@@H]1C(=O)N[C@H](Cc1ccccc1)C(=O)N[C@H](Cc1c[nH]cn1)C(=O)N[C@@H](C(=O)N[C@H](CC(=O)O)C(N)=O)[C@H](C)O)[C@H](C)CC [PR12],serum iron,"[1]; 50 μg per mouse i.p. in PBS, after 4 hours",significant decrease in serum iron
same,active in vivo,[1]; asterisk at the EC50 value of Table 1,*
CC[C@@H](C)[C@@H](NC(=O)[C@@H](Cc1ccccc1)NC(=O)CCOCCOCCOCCOCCOCCOCCOCCOCCOCCOCCOCCOCCNC(=O)[C@@H](CC(=O)O)NC(=O)CC[C@@H](C)[C@H]1CC[C@H]2[C@@H]3[C@@H](O)C[C@@H]4C[C@H](O)CC[C@]4(C)[C@H]3CC[C@]12C)C(=O)N[C@H](CS)C(=O)N[C@@H](C(=O)N1CCC[C@@H]1C(=O)N[C@H](Cc1ccccc1)C(=O)N[C@H](Cc1c[nH]cn1)C(=O)N[C@@H](C(=O)N[C@H](CC(=O)O)C(N)=O)[C@H](C)O)[C@H](C)CC [PR24] (Ursodeoxycholyl-[dD][PEG12][dF][dI][dC][dI][dP][dF][dH][dT][dD]-NH2),DC50,"[2]; Table 1, 24 h peptide treatment, 50% of maximal loss of fluorescence by Hep25, read-out: EC50 (the source's name)",1 µM
"F9A: Hep25 with alanine substitution F9A (DTHFPICIACCGCCHRSKCGMCCKT; Hepcidin-25; UniProt P81172 60-84, looked up, variant F9A)",decrease in hepcidin activity,"[2]; alanine substitution in Hep25, FIG. 1",more than 70%
